Patent publication EP4695300A2 (dated 2026)
No constants are given. Whether binding was seen depends on the method and setting. Some binding calls cover weakened binding; strength is not graded here. Tags and fused reporters may be left off the sequences shown.

Columns and labels:
[1] = target: T1, Prostaglandin F2 Receptor Inhibitor (PTGFRN), expressed by cells (human) (UniProt Q9P2B2); test: flow binding on cells
T1 sequence (looked up): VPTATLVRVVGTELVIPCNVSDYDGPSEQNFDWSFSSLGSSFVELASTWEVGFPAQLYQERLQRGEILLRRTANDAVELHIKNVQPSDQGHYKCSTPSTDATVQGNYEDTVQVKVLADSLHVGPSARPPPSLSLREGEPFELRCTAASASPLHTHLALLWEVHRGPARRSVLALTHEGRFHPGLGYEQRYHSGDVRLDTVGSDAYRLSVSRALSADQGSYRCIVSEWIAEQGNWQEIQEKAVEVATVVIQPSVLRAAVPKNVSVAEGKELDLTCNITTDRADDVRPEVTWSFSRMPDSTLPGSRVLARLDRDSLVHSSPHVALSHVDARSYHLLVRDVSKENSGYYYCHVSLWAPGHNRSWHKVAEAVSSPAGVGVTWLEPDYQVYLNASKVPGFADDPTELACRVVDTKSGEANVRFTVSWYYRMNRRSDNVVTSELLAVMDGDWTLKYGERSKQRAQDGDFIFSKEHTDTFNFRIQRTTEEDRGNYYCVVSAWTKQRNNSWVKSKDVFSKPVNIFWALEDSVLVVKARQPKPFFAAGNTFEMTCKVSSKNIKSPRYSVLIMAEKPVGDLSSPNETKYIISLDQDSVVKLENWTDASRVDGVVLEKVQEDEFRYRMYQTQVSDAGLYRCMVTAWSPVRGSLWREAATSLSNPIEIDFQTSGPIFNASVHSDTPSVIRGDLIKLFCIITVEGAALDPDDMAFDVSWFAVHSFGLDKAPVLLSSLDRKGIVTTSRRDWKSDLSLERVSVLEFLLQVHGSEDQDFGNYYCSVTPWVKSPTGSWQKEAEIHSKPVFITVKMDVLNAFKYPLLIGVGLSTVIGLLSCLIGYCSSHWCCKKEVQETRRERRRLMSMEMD

[2] = target: T1, Prostaglandin F2 Receptor Inhibitor (PTGFRN), expressed by cells (human); test: flow cytometry on A431, DAOY and MSTO-211H clones with PTGFRN knocked down or overexpressed
[3] = target: T1, Prostaglandin F2 Receptor Inhibitor (PTGFRN), expressed by cells (human); test: flow cytometry on cells
[4] = target: T1, Prostaglandin F2 Receptor Inhibitor (PTGFRN), expressed by cells (human); test: immunofluorescence on cells

Measured: binding

B1: fully human anti-PTGFRN monoclonal antibody 8C7 (antibody, V domains shown)
VH: QLQLQESGPGLVKPSETLSLTCTVSGGSISSSSYYWGWIRQPPGKGLEWIGSIYYGGSTYYNPSLKSRVTISVDTSTNQFSLKLNSVTAADTAVYYCARQGLGSFDCWGQGTLVTVSS
VL: DVVMTQSPLSLPVTLGQPASISCRSSQSLVHSDGNTYLNWFQQRPGQSPRRLIYKVSNRDSGVPDRFSGSGSGTDFTLKISGVEAEDVGIYYCMQGTHWPPLTFGGGTKVEIK
notes: also called anti-PTGFRN antibody 8C7; internalizing anti-PTGFRN 8C7
binds: all assays above
